Results: patent US20230348376A1 (TEIJIN PHARMA LIMITED, priority 2020, published 2023)

System: rat oligodendrocyte progenitor cells
Test: Promotive activity of rat oligodendrocyte progenitor cell differentiation-2 (immunostaining of MBP)
Format: cell-based
Conditions: vitamin D derivative 2 μM, T3 30 nM
Method: The promotive activity of oligodendrocyte progenitor cell (OPC) differentiation of the vitamin D derivatives was evaluated by immunostaining of MBP.
Subsequently, oligodendrocyte progenitor cell separation medium was added to the flask, and the mixture was similarly shaken for about 22 hours (37° C., 200 rpm), and the supernatant was collected to prepare oligodendrocyte progenitor cells.

Q: `C[C@H](CN1CCOCC12CC2)[C@H]1CC[C@H]2/C(=C/C=C3C[C@@H](O)C[C@H](O)C3)CCC[C@]12C` [Compound G007, (1R,3R)-5-(2-((1R,3aS,7aR,E)-1-((S)-1-(7-oxa-4-azaspiro[2.5]octan-4-yl)propan-2-yl)-7a-methyloctahydro-4H-inden-4-ylidene)ethylidene)cyclohexane-1,3-diol] was tested. Which “Significant difference (t-test vs DMSO group)” value (from here on “Significant difference”) (Test 4) did it give?
A: The value was “**** (<0.0001)”.

Q: With `C=C1[C@H](O)CC(=C/C=C2\CCC[C@]3(C)[C@@H]([C@H](C)CN4CCCC(O)(C(F)F)C4)CC[C@@H]23)C[C@H]1O` (single isomer, unassigned) [Compound C036a] as the molecule, how does the “Significant difference” value (Test 2) read?
A: Its value is “**** (<0.0001)”.

Q: With `C=C1[C@H](O)CC(=C/C=C2\CCC[C@]3(C)[C@@H]([C@H](C)CN4CCN(C)C[C@@H]4C)CC[C@@H]23)C[C@H]1O` [Compound H011, (1R,3R)-5-(2-((1R,3aS,7aR,E)-1-((S)-1-((S)-2,4-dimethylpiperazin-1-yl)propan-2-yl)-7a-methyloctahydro-4H-inden-4-ylidene)ethylidene)-2-methylenecyclohexane-1,3-diol] as the molecule, how does the “Significant difference” value (Test 5) read?
A: Its value is “*** (<0.001)”.

Q: With `C[C@H](CN1CC[C@@H](OCC(F)F)C1)[C@H]1CC[C@H]2/C(=C/C=C3C[C@@H](O)C[C@H](O)C3)CCC[C@]12C` [Compound B058, (1R,3R)-5-(2-((1R,3aS,7aR,E)-1-((S)-1-((R)-3-(2,2-difluoroethoxy)pyrrolidin-1-yl)propan-2-yl)-7a-methyloctahydro-4H-inden-4-ylidene)ethylidene)cyclohexane-1,3-diol] as the molecule, how does the “Significant difference” value (Test 2) read?
A: Its value is “**** (<0.0001)”.

Q: How did the “Significant difference” value (Test 5) turn out when `C=C1/C(=C\C=C2/CCC[C@]3(C)[C@@H]([C@H](C)CN4CCOC[C@@H]4C4CC4)CC[C@@H]23)C[C@@H](O)C[C@@H]1O` [Compound F008, (1R,3 S,Z)-5-(2-((1R,3aS,7aR,E)-1-((S)-1-((S)-3-cyclopropylmorpholino)propan-2-yl)-7a-methyloctahydro-4H-inden-4-ylidene)ethylidene)-4-methylenecyclohexane-1,3-diol] was run?
A: The value was “**** (<0.0001)”.

Q: For `C=C1/C(=C\C=C2/CCC[C@]3(C)[C@@H]([C@H](C)CN4CC[C@@H](CC(F)F)C4)CC[C@@H]23)C[C@@H](O)C[C@@H]1O` [Compound B037, (1R,3S,Z)-5-(2-((1R,3aS,7aR,E)-1-((S)-1-((S)-3-(2,2-difluoroethyl)pyrrolidin-1-yl)propan-2-yl)-7a-methyloctahydro-4H-inden-4-ylidene)ethylidene)-4-methylenecyclohexane-1,3-diol], which “Significant difference” value (Test 1) is on record?
A: Its value is “**** (<0.0001)”.

Q: `C=C1/C(=C\C=C2/CCC[C@]3(C)[C@@H]([C@H](C)CN4CCC[C@@H]4C(C)(C)OC)CC[C@@H]23)C[C@@H](O)C[C@@H]1O` [Compound F015, (1R,3S,Z)-5-(2-((1R,3aS,7aR,E)-1-((S)-1-((R)-2-(2-methoxypropan-2-yl)pyrrolidin-1-yl)propan-2-yl)-7a-methyloctahydro-4H-inden-4-ylidene)ethylidene)-4-methylenecyclohexane-1,3-diol] was tested. Which “Significant difference” value (Test 8) did it give?
A: The value was “*** (<0.001)”.

Q: `C[C@H](CCN1CCCC[C@@H]1C)[C@H]1CC[C@H]2/C(=C/C=C3C[C@@H](O)C[C@H](O)C3)CCC[C@]12C` [Compound G017, (1R,3R)-5-(2-((1R,3aS,7aR,E)-7a-methyl-1-((R)-4-((S)-2-methylpiperidin-1-yl)butan-2-yl)octahydro-4H-inden-4-ylidene)ethylidene)cyclohexane-1,3-diol] was tested. Which “Significant difference” value (Test 6) did it give?
A: Its value is “**** (<0.0001)”.

Q: How did the “Significant difference” value (Test 5) turn out when `C[C@H](CN1CCOC[C@@H]1C1CC1)[C@H]1CC[C@H]2/C(=C/C=C3C[C@@H](O)C[C@H](O)C3)CCC[C@]12C` [Compound G008, (1R,3R)-5-(2-((1R,3aS,7aR,E)-1-((S)-1-((S)-3-cyclopropylmorpholino)propan-2-yl)-7a-methyloctahydro-4H-inden-4-ylidene)ethylidene)cyclohexane-1,3-diol] was run?
A: Its value is “**** (<0.0001)”.

Q: Which “Significant difference” value (Test 3) does the source give for `C[C@H](CN1CCCC[C@@H]1C)[C@H]1CC[C@H]2/C(=C/C=C3C[C@@H](O)C[C@H](O)C3)CCC[C@]12C` [Compound G001, (1R,3R)-5-(2-((1R,3aS,7aR,E)-7a-methyl-1-((S)-1-((S)-2-methylpiperidin-1-yl)propan-2-yl)octahydro-4H-inden-4-ylidene)ethylidene)cyclohexane-1,3-diol] here?
A: The value was “**** (<0.0001)”.

Q: For `C=C1/C(=C\C=C2/CCC[C@]3(C)[C@@H]([C@H](C)CN4CCCC[C@H]4C)CC[C@@H]23)C[C@@H](O)C[C@H]1O` [Compound I002, (1R,3R,Z)-5-(2-((1R,3aS,7aR,E)-7a-methyl-1-((S)-1-((R)-2-methylpiperidin-1-yl)propan-2-yl)octahydro-4H-inden-4-ylidene)ethylidene)-4-methylenecyclohexane-1,3-diol], which “Significant difference” value (Test 9) is on record?
A: The value was “**** (<0.0001)”.

Q: For `C[C@H](CN1CC[C@H](OCC(F)F)C1)[C@H]1CC[C@H]2/C(=C/C=C3C[C@@H](O)C[C@H](O)C3)CCC[C@]12C` [Compound B057, (1R,3R)-5-(2-((1R,3aS,7aR,E)-1-((S)-1-((S)-3-(2,2-difluoroethoxy)pyrrolidin-1-yl)propan-2-yl)-7a-methyloctahydro-4H-inden-4-ylidene)ethylidene)cyclohexane-1,3-diol], which “Significant difference” value (Test 2) is on record?
A: The value was “**** (<0.0001)”.

Q: With `C[C@H](CN1CCC[C@H]1C(C)(C)O)[C@H]1CC[C@H]2/C(=C/C=C3C[C@@H](O)C[C@H](O)C3)CCC[C@]12C` [Compound G014, (1R,3R)-5-(2-((1R,3aS,7aR,E)-1-((S)-1-((S)-2-(2-hydroxypropan-2-yl)pyrrolidin-1-yl)propan-2-yl)-7a-methyloctahydro-4H-inden-4-ylidene)ethylidene)cyclohexane-1,3-diol] as the molecule, how does the “Significant difference” value (Test 6) read?
A: The value was “**** (<0.0001)”.

Q: How did the “Significant difference” value (Test 8) turn out when `C=C1[C@H](O)CC(=C/C=C2\CCC[C@]3(C)[C@@H]([C@H](C)CN4CCC[C@@H]4C(C)(C)OC)CC[C@@H]23)C[C@H]1O` [Compound H015, (1R,3R)-5-(2-((1R,3aS,7aR,E)-1-((S)-1-((R)-2-(2-methoxypropan-2-yl)pyrrolidin-1-yl)propan-2-yl)-7a-methyloctahydro-4H-inden-4-ylidene)ethylidene)-2-methylenecyclohexane-1,3-diol] was run?
A: Its value is “**** (<0.0001)”.

Q: For `C=C1[C@H](O)CC(=C/C=C2\CCC[C@]3(C)[C@@H]([C@H](C)CN4CCC(C(C)(F)F)CC4)CC[C@@H]23)C[C@H]1O` [Compound C055, (1R,3R)-5-(2-((1R,3aS,7aR,E)-1-((S)-1-(4-(1,1-difluoroethyl)piperidin-1-yl)propan-2-yl)-7a-methyloctahydro-4H-inden-4-ylidene)ethylidene)-2-methylenecyclohexane-1,3-diol], which “Significant difference” value (Test 2) is on record?
A: Its value is “**** (<0.0001)”.

Q: How did the “Significant difference” value (Test 1) turn out when `C=C1[C@H](O)CC(=C/C=C2\CCC[C@]3(C)[C@@H]([C@H](C)CN4CC[C@H](CC(F)F)C4)CC[C@@H]23)C[C@H]1O` [Compound B040, (1R,3R)-5-(2-((1R,3aS,7aR,E)-1-((S)-1-((R)-3-(2,2-difluoroethyl)pyrrolidin-1-yl)propan-2-yl)-7a-methyloctahydro-4H-inden-4-ylidene)ethylidene)-2-methylenecyclohexane-1,3-diol] was run?
A: Its value is “**** (<0.0001)”.

Q: For `C=C1[C@H](O)CC(=C/C=C2\CCC[C@]3(C)[C@@H]([C@H](C)CN4CCC[C@@H]4C(C)(C)O)CC[C@@H]23)C[C@H]1O` [Compound H013, (1R,3R)-5-(2-((1R,3aS,7aR,E)-1-((S)-1-((R)-2-(2-hydroxypropan-2-yl)pyrrolidin-1-yl)propan-2-yl)-7a-methyloctahydro-4H-inden-4-ylidene)ethylidene)-2-methylenecyclohexane-1,3-diol], which “Significant difference” value (Test 8) is on record?
A: The value was “**** (<0.0001)”.

Q: `C[C@H](CN1CC[C@H](OC(F)F)C1)[C@H]1CC[C@H]2/C(=C/C=C3C[C@@H](O)C[C@H](O)C3)CCC[C@]12C` [Compound B051, (1R,3R)-5-(2-((1R,3aS,7aR,E)-1-((S)-1-((S)-3-(difluoromethoxy)pyrrolidin-1-yl)propan-2-yl)-7a-methyloctahydro-4H-inden-4-ylidene)ethylidene)cyclohexane-1,3-diol] was tested. Which “Significant difference” value (Test 2) did it give?
A: Its value is “**** (<0.0001)”.

Q: `C=C1/C(=C\C=C2/CCC[C@]3(C)[C@@H]([C@H](C)CN4CCOC[C@@H]4C)CC[C@@H]23)C[C@@H](O)C[C@@H]1O` [Compound F004, (1R,3S,Z)-5-(2-((1R,3aS,7aR,E)-7a-methyl-1-((S)-1-((S)-3-methylmorpholino)propan-2-yl)octahydro-4H-inden-4-ylidene)ethylidene)-4-methylenecyclohexane-1,3-diol] was tested. Which “Significant difference” value (Test 3) did it give?
A: The value was “**** (<0.0001)”.

Q: Which “Significant difference” value (Test 9) does the source give for `C=C1[C@H](O)CC(=C/C=C2\CCC[C@]3(C)[C@@H]([C@H](C)CN4CCCCC4(C)C)CC[C@@H]23)C[C@H]1O` [Compound H003, (1R,3R)-5-(2-((1R,3aS,7aR,E)-1-((S)-1-(2,2-dimethylpiperidin-1-yl)propan-2-yl)-7a-methyloctahydro-4H-inden-4-ylidene)ethylidene)-2-methylenecyclohexane-1,3-diol] here?
A: Its value is “*** (<0.001)”.

Q: How did the “Significant difference” value (Test 1) turn out when `C=C1[C@H](O)CC(=C/C=C2\CCC[C@]3(C)[C@@H]([C@H](C)CN4CC[C@H](C(F)F)C4)CC[C@@H]23)C[C@H]1O` [Compound B023, (1R,3R)-5-(2-((1R,3aS,7aR,E)-1-((S)-1-((S)-3-(difluoromethyl)pyrrolidin-1-yl)propan-2-yl)-7a-methyloctahydro-4H-inden-4-ylidene)ethylidene)-2-methylenecyclohexane-1,3-diol] was run?
A: The value was “**** (<0.0001)”.
